According to publication PMC6317279:
Results are given in words; binding and its absence hold for the method and conditions named. In cells and extracts the contact can be indirect. A yes stands for co-enrichment or nearness to the bait. Other partners may have been found. Where a sequence is shown, tags or fusion partners need not be part of it.

Columns and labels:
Assay in all cases: affinity purification with mass spectrometry; FLAG IP of overexpressed N- and C-terminally FLAG-tagged CRTC1-3 from HEK 293T cells after 10 uM forskolin for 1 hr; endogenous phosphatase subunits found by MS (spectral counts)
[1] = biological target: T1, FLAG-tagged CRTC1 (cAMP-regulated transcriptional coactivator 1) (mouse) (UniProt Q68ED7)
T1 sequence: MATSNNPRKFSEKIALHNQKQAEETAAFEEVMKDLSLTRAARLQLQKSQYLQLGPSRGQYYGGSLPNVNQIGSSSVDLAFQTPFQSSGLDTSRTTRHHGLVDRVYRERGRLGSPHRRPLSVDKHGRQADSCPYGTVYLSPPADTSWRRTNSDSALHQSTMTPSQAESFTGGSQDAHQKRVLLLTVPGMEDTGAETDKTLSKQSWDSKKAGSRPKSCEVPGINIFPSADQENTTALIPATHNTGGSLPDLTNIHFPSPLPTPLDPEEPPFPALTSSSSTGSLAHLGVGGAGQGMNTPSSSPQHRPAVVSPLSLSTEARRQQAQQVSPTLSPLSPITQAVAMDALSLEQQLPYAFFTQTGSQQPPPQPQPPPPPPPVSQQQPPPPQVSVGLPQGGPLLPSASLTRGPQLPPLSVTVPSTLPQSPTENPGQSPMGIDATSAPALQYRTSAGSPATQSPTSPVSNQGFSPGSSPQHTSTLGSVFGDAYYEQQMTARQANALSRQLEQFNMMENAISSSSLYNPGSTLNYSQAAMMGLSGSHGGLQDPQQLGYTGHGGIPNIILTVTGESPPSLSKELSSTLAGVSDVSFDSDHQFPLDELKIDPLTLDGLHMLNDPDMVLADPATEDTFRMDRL

[2] = biological target: T2, FLAG-tagged CRTC3 wild type (cAMP-regulated transcriptional coactivator 3) (mouse) (UniProt Q91X84)
T2 sequence: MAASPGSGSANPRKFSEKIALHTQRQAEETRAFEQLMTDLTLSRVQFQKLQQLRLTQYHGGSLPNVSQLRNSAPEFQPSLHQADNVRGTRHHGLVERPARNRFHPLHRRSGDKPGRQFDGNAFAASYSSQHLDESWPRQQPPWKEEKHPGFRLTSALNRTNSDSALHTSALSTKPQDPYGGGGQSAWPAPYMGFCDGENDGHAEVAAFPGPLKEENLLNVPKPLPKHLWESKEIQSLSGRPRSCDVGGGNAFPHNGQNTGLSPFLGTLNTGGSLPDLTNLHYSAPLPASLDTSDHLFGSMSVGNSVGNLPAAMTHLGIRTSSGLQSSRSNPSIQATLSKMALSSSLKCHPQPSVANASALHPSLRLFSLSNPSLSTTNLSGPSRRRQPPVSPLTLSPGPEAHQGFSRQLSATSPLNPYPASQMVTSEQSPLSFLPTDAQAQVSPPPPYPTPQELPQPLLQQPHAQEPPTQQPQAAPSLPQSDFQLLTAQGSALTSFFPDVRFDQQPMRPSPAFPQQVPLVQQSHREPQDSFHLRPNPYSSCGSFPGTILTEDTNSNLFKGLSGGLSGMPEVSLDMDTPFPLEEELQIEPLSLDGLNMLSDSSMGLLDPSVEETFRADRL

[3] = biological target: T3, FLAG-tagged CRTC2 (cAMP-regulated transcriptional coactivator 2) (mouse) (UniProt Q3U182)
T3 sequence: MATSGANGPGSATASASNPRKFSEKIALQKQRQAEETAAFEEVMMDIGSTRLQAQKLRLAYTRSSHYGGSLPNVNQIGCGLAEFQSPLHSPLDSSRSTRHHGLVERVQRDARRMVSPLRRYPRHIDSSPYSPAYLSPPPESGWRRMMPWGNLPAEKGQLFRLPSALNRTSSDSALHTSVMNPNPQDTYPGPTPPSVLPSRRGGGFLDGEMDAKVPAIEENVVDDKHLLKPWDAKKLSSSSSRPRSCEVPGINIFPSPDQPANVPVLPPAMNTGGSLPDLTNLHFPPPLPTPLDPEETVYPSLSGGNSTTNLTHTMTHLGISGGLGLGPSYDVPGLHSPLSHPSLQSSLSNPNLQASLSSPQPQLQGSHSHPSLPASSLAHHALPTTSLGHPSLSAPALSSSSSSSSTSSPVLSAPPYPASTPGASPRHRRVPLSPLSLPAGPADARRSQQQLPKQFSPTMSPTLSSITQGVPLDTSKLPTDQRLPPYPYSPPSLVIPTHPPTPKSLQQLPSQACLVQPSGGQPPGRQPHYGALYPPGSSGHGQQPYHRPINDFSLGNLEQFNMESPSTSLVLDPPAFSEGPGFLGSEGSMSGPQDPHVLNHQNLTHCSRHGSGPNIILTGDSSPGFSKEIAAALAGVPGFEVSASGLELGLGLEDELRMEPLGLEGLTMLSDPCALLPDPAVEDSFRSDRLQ

Measured: binding

protein phosphatase 1 (human (endogenous in HEK 293T)) (enzyme)
binds weakly: [1] | [2] | [3]
